# Data: the supplement of paper PMC5949888
# ± gives the standard deviation of the averaged measurements. Most values lie at the floor of the assay. Slopes are relative: functional sequences can read slightly below zero.
# Tested on: Saccharomyces cerevisiae PS128 hsf1 delta, HSF1(1-493) fusion
# Experiment: growth estimate (transactivation domain function in HSF1 fusion, heat-shock survival) (a.u. (slope of normalised read count over time)); higher = stronger growth at 37°C, i.e. more transactivation activity
# Details: library: random library
row,Substance,growth estimate
1,INPRLTYRIVASAAELVSIS,< -0.25
2,INPSVTRLILWCLQHVGT,< -0.25
3,INPVY,< -0.25
4,INRIILGYKYASPGGCRGRV,< -0.25
5,INRPNYRL,< -0.25
6,INRPVGNV,< -0.25
7,INSSVRRNVLRTRCTDRRCV,< -0.25
8,INVSCG,< -0.25
9,INWKGLVVEVRQ,< -0.25
10,IPAEAARVRWPQKPLPMIGS,-0.246
11,IPAKTGIGLDDYSRRPDLLP,< -0.25
12,IPCRRRGSQDPEASSP,< -0.25
13,IPDVGRDPKSYSDSTYRSRN,< -0.25
14,IPFLIDGTRSSDCAEKPMRI,< -0.25
15,IPG,< -0.25
16,IPGSSFQVIFAVEPRSCHNH,< -0.25
17,IPIVCNWVSQDSYLSIRPVK,< -0.25
18,IPKGSAPL,< -0.25
19,IPPDTRAIPLQGCLWALASK,< -0.25
20,IPPHQSTPVHPGTSDART,-0.229
21,IPPVRRLRFSGKAGPVI,< -0.25
22,IPRALIRRFMHRGKPYGSRP,< -0.25
23,IPRCNCRRVIGVCGKSLFSA,< -0.25
24,IPREVCVLRGYPARAGMRPR,< -0.25
25,IPRKCVRGRCEVLDERTVAA,0.0112

row,Substance,growth estimate
1,IPRLNATNIPHTPAGHSMWP,< -0.25
2,IPSFLG,< -0.25
3,IPSIAVVGSRTRDSGPLAGH,< -0.25
4,IPSNIHFPLVQMGYRASKSG,< -0.25
5,IPSTGSGTSNTRPMT,< -0.25
6,IPTYAPNSP,< -0.25
7,IPVASNTPANSMTVPTKHFL,< -0.25
8,IPVS,< -0.25
9,IPYGAFIF,< -0.25
10,IQARQRGY,< -0.25
11,IQFCRVCLPTW,< -0.25
12,IQFDPWHGYGIRRDETVSPV,< -0.25
13,IQFVQLLRGYHSES,< -0.25
14,IQGAQCLSAWRQNAAALPLR,< -0.25
15,IQGVSNGVLGYVLVVSALNR,< -0.25
16,IQL,-0.198 ± 0.074
17,IQLEDLAKKKRKDRHVSTPL,< -0.25
18,IQLGPNRTMYYRDLQQGKVT,< -0.25
19,IQLHVLRRFLPAMWLC,< -0.25
20,IQLLANPYQRECGSLGETLR,< -0.25
21,IQLSTEASDRTGS,< -0.25
22,IQLSTRECVRAGAMR,< -0.25
23,IQPCAGVMVPQCFVMYSLGR,< -0.25
24,IQQFPRGIFVGRVKMAARQL,< -0.25
25,IQRAGTSCTHRRSDIYMTGM,< -0.25

row,Substance,growth estimate
1,IQSLKMEIIRDAFNLHMVRV,< -0.25
2,IQSPR,< -0.25
3,IQSSAA,< -0.25
4,IQSTSCRVRWLSQASCERIL,< -0.25
5,IQTPCFGSPRDCKRKRSFLD,< -0.25
6,IQYLS,< -0.25
7,IQYPSLPQFHCH,< -0.25
8,IRA,< -0.25
9,IRCA,< -0.25
10,IRCR,< -0.25
11,IRCYFVGCPKGRGVEGGPCQ,< -0.25
12,IRD,< -0.25
13,IRDRHPVSKEPSVGY,< -0.25
14,IREPLIQWAFPSEGPSFWRP,-0.246
15,IRFAKDHRRGRGCAVTNGNG,< -0.25
16,IRFPSSVGDSGHGWSIQYLL,< -0.25
17,IRGQRSGQSGLRESAKQQRA,< -0.25
18,IRI,< -0.25
19,IRISVEPDRSGPSIDHHIAA,< -0.25
20,IRKYTRDRSRSGNAACRYVR,< -0.25
21,IRLAYR,< -0.25
22,IRLRRMVGSFC,< -0.25
23,IRMSSG,< -0.25
24,IRP,< -0.25
25,IRPEVALEGCGIHSNQGDRS,< -0.25

row,Substance,growth estimate
1,IRPHQPAGYFWTPLVILHTV,< -0.25
2,IRPQDRSDMNKGNTLLTRQS,< -0.25
3,IRPSVWIVGSQQGRAYTVGT,< -0.25
4,IRPVE,< -0.25
5,IRRARMTYHPGELTLFQLRE,< -0.25
6,IRRGRTASLNLNRKSESAGA,< -0.25
7,IRRLNLDKVSASRLCTPDCH,< -0.25
8,IRRSNVCWLGASAAIAPI,< -0.25
9,IRRYSESW,< -0.25
10,IRSDRGMFKVRLTAGVIRPQ,< -0.25
11,IRSGVRGGQIQGPSLFIGPP,< -0.25
12,IRSHGPQCRVPFPEAQAQEL,< -0.25
13,IRSRRSRVCSASEVWNRNRP,< -0.25
14,IRTGFPMS,< -0.25
15,IRTVCDNVQAMPRADSGSRR,< -0.25
16,IRVKETLPVPSGMQVLGKFT,< -0.25
17,IRVPLSIVALVHLRTLFLLN,< -0.25
18,IRVRYEYARMVASELRFSRP,< -0.25
19,IRWGLDPDTAVTRCIDS,-0.25
20,ISAGPIHIQDIQFKQRTLCT,< -0.25
21,ISARANV,< -0.25
22,ISAVIS,< -0.25
23,ISCWIL,< -0.25
24,ISDGITR,< -0.25
25,ISEFVVGPIQTGG,< -0.25

row,Substance,growth estimate
1,ISEM,< -0.25
2,ISESWSVKERVPRSMGLMVM,< -0.25
3,ISF,< -0.25
4,ISGGRSKA,< -0.25
5,ISGPVVSKVKHCPVAVKGPS,< -0.25
6,ISGQPTKVRTYQKLPGIEP,< -0.25
7,ISGRGVSILGVGLARMLPAV,< -0.25
8,ISGRPQN,< -0.25
9,ISGSNNLRIVTKFFRQLVRS,< -0.25
10,ISHSYLIYSSAPALALQRPN,< -0.25
11,ISI,-0.244 ± 0.0081
12,ISIHVESRCDRILSQAIFTS,< -0.25
13,ISIRVRH,< -0.25
14,ISKAIVAHHLGRQYRNISVG,< -0.25
15,ISLGGERGVDLSNALQIGTA,< -0.25
16,ISLLKRPSDGPQRYGGIAKR,< -0.25
17,ISLS,< -0.25
18,ISLSGTIRGVVTTGRLVRQG,< -0.25
19,ISNPCRISALGKVALPGL,< -0.25
20,ISPEGSGHQQLIGRAGPLDF,< -0.25
21,ISPGRGIASPLTLQVFAEPM,< -0.25
22,ISQRA,< -0.25
23,ISRQKTISGRRY,< -0.25
24,ISSAESGQPLSWVKMPWLPR,< -0.25
25,ISSEEANSKILNHVLDTAVG,< -0.25

# Part of the list above, reformatted.
row | Substance | growth estimate
13 | IRSRRSRVCSASEVWNRNRP | < -0.25
14 | IRTGFPMS | < -0.25
15 | IRTVCDNVQAMPRADSGSRR | < -0.25
16 | IRVKETLPVPSGMQVLGKFT | < -0.25
17 | IRVPLSIVALVHLRTLFLLN | < -0.25
18 | IRVRYEYARMVASELRFSRP | < -0.25
19 | IRWGLDPDTAVTRCIDS | -0.25

# Remaining list, next part.

row,Substance,growth estimate
1,ISSHWLEKLGQLWP,< -0.25
2,ISSRVPSGANSRQ,< -0.25
3,ISTDARK,< -0.25
4,ISWWIACDR,< -0.25
5,ISYAVSSGGEAPPA,< -0.25
6,ITAKKESQNSTLTAGNSGIL,< -0.25
7,ITASPVLGYGPIQRCLSCGQ,< -0.25
8,ITCK,< -0.25
9,ITDQVTSLCMLLCGSRPAPE,-0.246
10,ITDVKFDGIRSLRHEKYEGT,< -0.25
11,ITDYASRHRRRFRVLKRPPY,< -0.25
12,ITEIREN,< -0.25
13,ITGQRSLSFRDGNIVLLGPY,< -0.25
14,ITLMPEKDDS,< -0.25
15,ITMR,< -0.25
16,ITNVFPATQKACALLVSSEA,< -0.25
17,ITPLRMG,< -0.25
18,ITPSRHGQALPGNWMEATCP,< -0.25
19,ITRGVHKNPGVPKVRMTLAH,< -0.25
20,ITRSPPDR,< -0.25
21,ITSGHAFGK,< -0.25
22,ITSIHGLSSVICFVVKPAHF,< -0.25
23,ITSRTSGRHSNISST,< -0.25
24,ITSRVLHSWHRTRRDPIGGV,< -0.25
25,ITSSLFRRRDT,< -0.25

row,Substance,growth estimate
1,ITSWEGLLWESNFADECERA,-0.0857
2,ITTIVRISEARSNIFIAFLF,< -0.25
3,ITTLLRVTKGGLGTESV,< -0.25
4,ITTNRRSV,< -0.25
5,ITVPVGVRLWDAEAVVKKM,< -0.25
6,ITVPYKIAAKTVKRYVRFSL,< -0.25
7,ITVRRRATRVHDQPRVN,< -0.25
8,ITVTTANWCTTSFPASGSVH,< -0.25
9,ITWGAQAGYEAAVRLVWSGH,< -0.25
10,IVARPRTLSWKSTCEGPDSS,< -0.25
11,IVCLRKAQR,< -0.25
12,IVGDLVPFDCNG,< -0.25
13,IVGMGPSPLECVRLRHMYGR,< -0.25
14,IVGSFSGSTRHSNTRAFRQD,< -0.25
15,IVICLIRMDHRGHAAT,< -0.25
16,IVKAELSMKVTVWAILKVAR,< -0.25
17,IVLAFSKGRGYQPNGVKSGP,< -0.25
18,IVLGQ,< -0.25
19,IVLR,< -0.25
20,IVNAWGVLWRGRTRQAV,< -0.25
21,IVR,< -0.25
22,IVRDSWYV,< -0.25
23,IVRSFLLWVLSVMQCSRRLT,< -0.25
24,IVSEIPTT,< -0.25
25,IVSLFRIATLCI,< -0.25

row,Substance,growth estimate
1,IVSTAKGFAGLPRLTEVMEP,-0.243
2,IVSVWTESLMHGRPNGDHVT,< -0.25
3,IVVAR,< -0.25
4,IVVSCQESRYGSRARLVVLG,< -0.25
5,IVVSRQCLNRGFFIDQKCSA,< -0.25
6,IVVVERV,-0.25
7,IVYVSSGEVGRWSWQADDTF,< -0.25
8,IWESSRHRIKITQAPSNECG,< -0.25
9,IWHVLCVSSPSS,< -0.25
10,IWIRHRGRTVACPA,< -0.25
11,IWITNRSRSY,< -0.25
12,IWIVGQTNGAHFRADGAVYG,< -0.25
13,IWKSRFQRGSKKTILLE,< -0.25
14,IWLHRRRPVRVSCTHGTSKV,< -0.25
15,IWMRSHWDLHGTLLYRCSVK,< -0.25
16,IWP,< -0.25
17,IWQGYPKWSLSTGSKRERGK,< -0.25
18,IWRGDIVKKVTSIRG,< -0.25
19,IWRHTIRPGVVNALEFLSAS,< -0.25
20,IWRVAKVREVAYGYGPVLTA,< -0.25
21,IWSQISDLELSIISRALDES,< -0.25
22,IWTYTNFRANLSRG,< -0.25
